According to the supplement of paper PMC7666118:
The other results are listed elsewhere or left out.

Amino acid sequences for entries named in this document (tags omitted). A change or cut given only in a name is not applied to a line headed by its entry.
UniProt Q96JJ7: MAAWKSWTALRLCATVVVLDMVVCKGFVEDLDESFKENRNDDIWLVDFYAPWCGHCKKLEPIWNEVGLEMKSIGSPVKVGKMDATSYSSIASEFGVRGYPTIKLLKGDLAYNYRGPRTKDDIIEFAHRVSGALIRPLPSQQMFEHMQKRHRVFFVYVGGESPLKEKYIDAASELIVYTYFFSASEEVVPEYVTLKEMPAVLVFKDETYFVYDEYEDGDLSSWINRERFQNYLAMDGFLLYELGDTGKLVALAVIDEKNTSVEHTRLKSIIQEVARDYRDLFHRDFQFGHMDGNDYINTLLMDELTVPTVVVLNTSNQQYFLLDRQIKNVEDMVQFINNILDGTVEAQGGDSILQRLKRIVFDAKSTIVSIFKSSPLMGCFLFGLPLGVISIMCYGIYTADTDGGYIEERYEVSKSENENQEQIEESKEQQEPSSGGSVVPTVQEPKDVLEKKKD
UniProt Q8WVY7: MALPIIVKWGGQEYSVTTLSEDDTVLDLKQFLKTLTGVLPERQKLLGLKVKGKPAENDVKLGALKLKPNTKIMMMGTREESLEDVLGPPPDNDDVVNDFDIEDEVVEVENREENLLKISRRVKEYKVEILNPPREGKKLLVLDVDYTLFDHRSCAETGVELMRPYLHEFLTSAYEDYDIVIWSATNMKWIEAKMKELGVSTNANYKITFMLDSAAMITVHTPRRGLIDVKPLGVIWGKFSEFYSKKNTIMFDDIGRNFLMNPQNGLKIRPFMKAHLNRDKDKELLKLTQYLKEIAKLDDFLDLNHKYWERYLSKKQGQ
UniProt Q14258, whole entry: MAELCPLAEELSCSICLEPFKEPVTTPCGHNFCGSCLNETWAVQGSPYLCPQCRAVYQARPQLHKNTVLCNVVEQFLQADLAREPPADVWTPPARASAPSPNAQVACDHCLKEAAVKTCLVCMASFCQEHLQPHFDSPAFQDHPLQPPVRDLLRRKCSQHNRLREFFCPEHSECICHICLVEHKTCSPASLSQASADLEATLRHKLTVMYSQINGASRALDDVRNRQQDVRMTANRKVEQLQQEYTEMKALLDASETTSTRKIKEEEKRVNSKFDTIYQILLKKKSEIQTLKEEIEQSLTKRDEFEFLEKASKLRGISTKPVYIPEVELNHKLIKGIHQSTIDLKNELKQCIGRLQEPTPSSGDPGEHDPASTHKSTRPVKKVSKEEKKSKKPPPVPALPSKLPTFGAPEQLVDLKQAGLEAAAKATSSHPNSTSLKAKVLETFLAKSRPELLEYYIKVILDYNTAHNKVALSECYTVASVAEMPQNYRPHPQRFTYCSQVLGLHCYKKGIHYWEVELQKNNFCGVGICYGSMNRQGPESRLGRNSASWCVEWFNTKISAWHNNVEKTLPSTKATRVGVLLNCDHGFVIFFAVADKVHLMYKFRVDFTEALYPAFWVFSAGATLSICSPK
UniProt P22415: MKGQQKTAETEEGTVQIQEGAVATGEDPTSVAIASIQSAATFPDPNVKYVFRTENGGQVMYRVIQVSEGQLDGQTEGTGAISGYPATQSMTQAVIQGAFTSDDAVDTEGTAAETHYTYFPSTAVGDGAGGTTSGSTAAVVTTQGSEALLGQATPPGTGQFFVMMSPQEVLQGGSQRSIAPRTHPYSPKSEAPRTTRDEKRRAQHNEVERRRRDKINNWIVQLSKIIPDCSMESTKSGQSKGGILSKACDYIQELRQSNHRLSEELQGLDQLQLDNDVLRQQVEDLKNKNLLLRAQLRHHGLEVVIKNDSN
UniProt Q99816: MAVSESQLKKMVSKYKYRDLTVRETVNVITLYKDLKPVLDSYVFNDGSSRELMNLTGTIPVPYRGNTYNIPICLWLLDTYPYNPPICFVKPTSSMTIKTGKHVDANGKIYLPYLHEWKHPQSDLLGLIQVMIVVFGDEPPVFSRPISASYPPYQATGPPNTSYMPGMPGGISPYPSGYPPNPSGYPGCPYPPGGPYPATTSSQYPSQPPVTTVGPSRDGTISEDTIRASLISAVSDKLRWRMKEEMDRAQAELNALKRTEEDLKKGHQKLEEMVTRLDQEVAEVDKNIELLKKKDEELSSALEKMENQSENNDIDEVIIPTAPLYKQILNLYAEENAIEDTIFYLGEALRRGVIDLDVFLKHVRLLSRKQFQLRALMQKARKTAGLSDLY
UniProt Q6IPR3: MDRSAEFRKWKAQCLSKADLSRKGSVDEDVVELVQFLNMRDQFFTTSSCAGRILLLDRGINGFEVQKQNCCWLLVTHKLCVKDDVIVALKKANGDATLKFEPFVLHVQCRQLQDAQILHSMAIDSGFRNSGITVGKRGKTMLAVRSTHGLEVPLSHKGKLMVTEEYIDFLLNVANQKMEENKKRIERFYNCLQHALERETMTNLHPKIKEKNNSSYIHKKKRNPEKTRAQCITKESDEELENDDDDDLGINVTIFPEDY
UniProt Q13263: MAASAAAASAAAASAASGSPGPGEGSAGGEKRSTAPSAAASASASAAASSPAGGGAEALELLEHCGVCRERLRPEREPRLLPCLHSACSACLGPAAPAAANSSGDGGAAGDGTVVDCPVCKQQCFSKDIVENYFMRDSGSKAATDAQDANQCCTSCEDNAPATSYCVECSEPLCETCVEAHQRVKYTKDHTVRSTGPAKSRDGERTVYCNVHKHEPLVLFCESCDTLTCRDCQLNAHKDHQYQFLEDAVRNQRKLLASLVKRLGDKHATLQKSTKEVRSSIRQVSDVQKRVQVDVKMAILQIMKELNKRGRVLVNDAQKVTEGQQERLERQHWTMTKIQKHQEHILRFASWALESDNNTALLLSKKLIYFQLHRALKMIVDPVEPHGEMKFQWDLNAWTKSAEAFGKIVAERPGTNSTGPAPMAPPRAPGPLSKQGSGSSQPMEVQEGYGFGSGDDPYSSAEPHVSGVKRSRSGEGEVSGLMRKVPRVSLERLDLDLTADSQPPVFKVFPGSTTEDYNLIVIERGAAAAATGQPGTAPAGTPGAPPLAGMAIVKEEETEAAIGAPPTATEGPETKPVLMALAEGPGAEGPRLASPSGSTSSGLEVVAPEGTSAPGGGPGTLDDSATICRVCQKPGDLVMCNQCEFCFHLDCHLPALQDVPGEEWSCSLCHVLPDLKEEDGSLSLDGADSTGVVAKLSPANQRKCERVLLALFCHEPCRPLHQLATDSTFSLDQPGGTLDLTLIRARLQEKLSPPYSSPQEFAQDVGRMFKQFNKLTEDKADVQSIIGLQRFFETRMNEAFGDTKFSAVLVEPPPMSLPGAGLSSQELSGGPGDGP
UniProt Q96RL1: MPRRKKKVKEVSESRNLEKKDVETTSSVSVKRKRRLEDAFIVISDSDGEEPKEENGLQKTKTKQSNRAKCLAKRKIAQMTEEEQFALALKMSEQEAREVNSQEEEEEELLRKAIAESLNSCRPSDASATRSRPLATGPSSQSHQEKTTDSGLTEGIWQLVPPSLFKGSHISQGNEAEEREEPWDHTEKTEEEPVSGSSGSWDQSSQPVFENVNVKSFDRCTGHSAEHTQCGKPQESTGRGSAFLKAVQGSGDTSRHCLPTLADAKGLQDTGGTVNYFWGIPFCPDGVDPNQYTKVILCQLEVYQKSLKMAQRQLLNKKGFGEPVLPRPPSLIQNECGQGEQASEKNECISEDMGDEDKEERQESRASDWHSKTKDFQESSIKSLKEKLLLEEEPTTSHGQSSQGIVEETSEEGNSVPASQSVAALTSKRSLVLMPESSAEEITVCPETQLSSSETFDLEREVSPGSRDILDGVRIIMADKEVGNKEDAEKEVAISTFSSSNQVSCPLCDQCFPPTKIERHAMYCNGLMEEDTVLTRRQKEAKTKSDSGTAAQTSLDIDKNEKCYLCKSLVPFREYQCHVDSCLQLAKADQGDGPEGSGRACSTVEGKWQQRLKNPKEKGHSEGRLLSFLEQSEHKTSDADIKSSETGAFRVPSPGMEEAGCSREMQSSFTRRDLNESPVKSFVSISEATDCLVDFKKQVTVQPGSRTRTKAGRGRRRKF
UniProt Q9Y5S1: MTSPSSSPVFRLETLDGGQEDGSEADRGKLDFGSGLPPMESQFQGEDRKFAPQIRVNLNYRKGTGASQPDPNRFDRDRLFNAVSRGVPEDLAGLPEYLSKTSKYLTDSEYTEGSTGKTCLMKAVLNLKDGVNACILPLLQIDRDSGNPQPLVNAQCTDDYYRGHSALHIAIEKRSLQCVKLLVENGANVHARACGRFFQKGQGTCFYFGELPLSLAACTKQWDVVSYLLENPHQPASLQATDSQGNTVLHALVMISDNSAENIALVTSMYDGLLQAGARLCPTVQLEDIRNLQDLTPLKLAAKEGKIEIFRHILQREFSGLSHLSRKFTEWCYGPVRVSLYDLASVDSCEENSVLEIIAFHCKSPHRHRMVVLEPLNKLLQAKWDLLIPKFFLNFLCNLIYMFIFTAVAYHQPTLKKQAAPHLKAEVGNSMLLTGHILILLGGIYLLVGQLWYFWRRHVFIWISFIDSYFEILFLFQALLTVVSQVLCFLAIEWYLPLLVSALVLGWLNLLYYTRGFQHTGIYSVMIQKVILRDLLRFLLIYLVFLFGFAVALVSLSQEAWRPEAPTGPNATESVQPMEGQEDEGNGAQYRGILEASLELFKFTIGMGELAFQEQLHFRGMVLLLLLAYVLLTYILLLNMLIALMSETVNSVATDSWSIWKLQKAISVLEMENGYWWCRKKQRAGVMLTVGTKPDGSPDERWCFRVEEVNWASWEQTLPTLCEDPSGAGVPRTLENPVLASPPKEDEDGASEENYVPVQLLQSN
UniProt Q9H1J1: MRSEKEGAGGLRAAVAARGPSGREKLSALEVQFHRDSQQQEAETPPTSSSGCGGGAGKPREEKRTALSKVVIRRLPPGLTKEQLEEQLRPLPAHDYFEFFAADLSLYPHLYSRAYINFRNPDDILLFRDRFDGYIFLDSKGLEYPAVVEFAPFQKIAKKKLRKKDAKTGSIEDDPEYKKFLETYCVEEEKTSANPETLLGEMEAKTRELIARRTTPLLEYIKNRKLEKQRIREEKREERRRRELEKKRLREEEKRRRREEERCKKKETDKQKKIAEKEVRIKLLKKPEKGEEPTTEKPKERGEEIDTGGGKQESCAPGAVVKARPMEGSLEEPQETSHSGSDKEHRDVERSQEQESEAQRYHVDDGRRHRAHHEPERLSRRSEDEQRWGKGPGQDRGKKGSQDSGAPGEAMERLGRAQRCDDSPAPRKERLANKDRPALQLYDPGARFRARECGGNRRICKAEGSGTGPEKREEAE
UniProt Q8N0Z6: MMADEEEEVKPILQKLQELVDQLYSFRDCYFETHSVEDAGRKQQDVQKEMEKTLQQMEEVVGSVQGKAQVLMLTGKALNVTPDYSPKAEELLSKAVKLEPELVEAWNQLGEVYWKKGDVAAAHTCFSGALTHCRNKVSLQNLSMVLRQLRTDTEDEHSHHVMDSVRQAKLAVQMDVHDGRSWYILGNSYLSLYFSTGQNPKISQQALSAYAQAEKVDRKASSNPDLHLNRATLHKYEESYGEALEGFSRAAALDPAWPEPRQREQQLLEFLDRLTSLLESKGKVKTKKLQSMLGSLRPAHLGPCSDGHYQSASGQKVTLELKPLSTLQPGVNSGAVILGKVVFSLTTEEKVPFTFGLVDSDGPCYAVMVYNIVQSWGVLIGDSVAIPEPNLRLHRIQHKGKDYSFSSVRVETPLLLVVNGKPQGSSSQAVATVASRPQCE

Compound: COc1ccc(Cn2ccc3ccc(C(=O)NO)cc32)cc1
Test: dose-dependent thermal stabilisation call (2D-TPP, DLPTP, 10% FDR) (binary (1 = stabilised)); higher = stabilised by the compound
Conditions: system: HL-60 intact cells; concentration range 0.04-10 µM

Target | dose-dependent thermal stabilisation call
TXNDC10 (UniProt Q96JJ7) | inactive: 0
UBLCP1 (UniProt Q8WVY7) | inactive: 0
TRIM25 (UniProt Q14258) | inactive: 0
USF1 (UniProt P22415) | inactive: 0
TSG101 (UniProt Q99816) | inactive: 0
TYW3 (UniProt Q6IPR3) | inactive: 0
TRIM28 (UniProt Q13263) | inactive: 0
UIMC1 (UniProt Q96RL1) | inactive: 0
TRPV2 (UniProt Q9Y5S1) | inactive: 0
UPF3A (UniProt Q9H1J1) | inactive: 0
TTC5 (UniProt Q8N0Z6) | inactive: 0
